PubChem BioAssay AID602196, INSERM – 2012
The whole screen tested about 23,000 reagents; below is a part drawn at random. 455 of them (2%) were called active. 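Active includes both protection and sensitisation; some change values fall well beyond the stated -50 to +50 range.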 Further read-outs or replicates are left out here. Not given: the amount of reagent.

Screen: 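Knock-downs that protect lung cancer cells from cisplatin or sensitise them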
Cell system: human A549 lung cancer cells
Reagent: siRNA pair against human genes
Timing: 48 h transfection before cisplatin; time from cisplatin to read-out not stated
Treatment: cisplatin at a dose killing half of control-siRNA cells; exact dose and duration not given
Detection: 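Shift in cisplatin death relative to control siRNA, from -50 (all cells die) to +50 (no cells die); siRNAs harmful on their own scored 0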
Direction: two-siRNA summed score (-2 to +2): higher = both siRNAs protect from cisplatin killing; -2 means both sensitise
Rule for the call: 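siRNAs harmful alone (LDH or WST-1) get 0; others get +1 for less and -1 for more cisplatin killing; genes are active when the two siRNAs give the same sign, summing to ±2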
Meaning of the calls: active = both siRNAs shift cisplatin killing the same way; inactive = no consistent shift, or siRNA harmful alone

What did the screen give for LOC389764?
two-siRNA summed score (-2 to +2): 0; Outcome: inactive

For SF3B6 (splicing factor 3b subunit 6), how do the results read?
two-siRNA summed score (-2 to +2): 0; Outcome: inactive

How did the screen score EFCAB12 (EF-hand calcium binding domain 12)?
two-siRNA summed score (-2 to +2): -1; Outcome: inactive

For LOC402037, what does the deposit list?
two-siRNA summed score (-2 to +2): -1; Outcome: inactive

For CORO1C (coronin 1C), what does the deposit list?
two-siRNA summed score (-2 to +2): 0; Outcome: inactive

With GPR15LG (G protein-coupled receptor 15 ligand), what was measured?
two-siRNA summed score (-2 to +2): 0; Outcome: inactive

With ISG15 (ISG15 ubiquitin like modifier), what does the deposit list?
two-siRNA summed score (-2 to +2): -1; Outcome: inactive

With GRIN2B (glutamate ionotropic receptor NMDA type subunit 2B), what does the deposit list?
two-siRNA summed score (-2 to +2): 0; Outcome: inactive

For SPINK7 (serine peptidase inhibitor Kazal type 7), what does the deposit list?
two-siRNA summed score (-2 to +2): 0; Outcome: inactive

For LOC388248 (Rho GTPase activating protein 23 pseudogene), what does the deposit list?
two-siRNA summed score (-2 to +2): -1; Outcome: inactive

For SLAMF8 (SLAM family member 8), how do the results read?
two-siRNA summed score (-2 to +2): -1; Outcome: inactive

How did the screen score GPR18 (G protein-coupled receptor 18)?
two-siRNA summed score (-2 to +2): 0; Outcome: inactive

What did the screen give for RAB20 (RAB20, member RAS oncogene family)?
two-siRNA summed score (-2 to +2): 0; Outcome: inactive

How did the screen score UBE2J1 (ubiquitin conjugating enzyme E2 J1)?
two-siRNA summed score (-2 to +2): 0; Outcome: inactive

For LOC339804, how do the results read?
two-siRNA summed score (-2 to +2): 1; Outcome: inactive

What did the screen give for CAPNS2 (calpain small subunit 2)?
two-siRNA summed score (-2 to +2): 0; Outcome: inactive

With LOC56930, what was measured?
two-siRNA summed score (-2 to +2): 0; Outcome: inactive

With MROH7 (maestro heat like repeat family member 7), what does the deposit list?
two-siRNA summed score (-2 to +2): 0; Outcome: inactive

What is on record for ASIC2 (acid sensing ion channel subunit 2)?
two-siRNA summed score (-2 to +2): 0; Outcome: inactive

With OR2A7 (olfactory receptor family 2 subfamily A member 7), what does the deposit list?
two-siRNA summed score (-2 to +2): 0; Outcome: inactive

What did the screen give for SENP2 (SUMO specific peptidase 2)?
two-siRNA summed score (-2 to +2): -1; Outcome: inactive

For PPIAP78 (peptidylprolyl isomerase A pseudogene 78), what does the deposit list?
two-siRNA summed score (-2 to +2): 1; Outcome: inactive

Which result is listed for ADCY8 (adenylate cyclase 8)?
two-siRNA summed score (-2 to +2): -1; Outcome: inactive

With LOC440578, what was measured?
two-siRNA summed score (-2 to +2): 0; Outcome: inactive

What is on record for SHF (Src homology 2 domain containing F)?
two-siRNA summed score (-2 to +2): 0; Outcome: inactive

With RPRD1B (regulation of nuclear pre-mRNA domain containing 1B), how do the results read?
two-siRNA summed score (-2 to +2): 1; Outcome: inactive

For MIGA2 (mitoguardin 2), how do the results read?
two-siRNA summed score (-2 to +2): 0; Outcome: inactive

What did the screen give for GIMAP7 (GTPase, IMAP family member 7)?
two-siRNA summed score (-2 to +2): 0; Outcome: inactive

What did the screen give for LOC441968?
two-siRNA summed score (-2 to +2): 2; Outcome: active

With ZBTB6 (zinc finger and BTB domain containing 6), how do the results read?
two-siRNA summed score (-2 to +2): 1; Outcome: inactive

How did the screen score DLG4 (discs large MAGUK scaffold protein 4)?
two-siRNA summed score (-2 to +2): 0; Outcome: inactive

Look-ups from above:
SLAMF8 (SLAM family member 8), Outcome → inactive
LOC339804, two-siRNA summed score (-2 to +2): 1
